Source: patent publication US11840545B1, “Spirooxindole-copper complex as novel efficient anticorrosion agent for C-steel” (KING FAISAL UNIVERSITY, priority 2023, dated 2023)

Experiments:
[1] = Polarization (Tafel) study of corrosion inhibition; conditions: C-steel, 1M HCl, 298 K; for θ: polarization
Text: (§1) In an embodiment, the thus formed CuL copper complex can undergo anticorrosion studies by adding the obtained CuL copper complex to hydrochloric acid (for example, at 1M) using a C-steel electrode.
(§2) The % inhibition of Spiro compounds SP34, SP37 and SP311 and their copper complexes for C-steel in hydrochloric acid solution (1M) were computed by Impedance and Polarization studies. The model used for the electrochemical equivalent circuit to fit the impedance for anticorrosion studies of Carbon steel (C-steel) by Spiro inhibitors was CPE with diffusion as shown in FIG. 7.

[2] = Bode phase and Bode plots of a C-steel electrode; conditions: 1 M HCl; for Slope α: Bode plot
[3] = Impedance study of corrosion inhibition, equivalent circuit model CPE with Diffusion; conditions: C-steel, 1M HCl, 298 K
Text: as §1, §2

Cc1[nH]nnc1C(=O)[C@H]1[C@H](c2cccc(Br)c2)C2CSCN2[C@]12C(=O)Nc1cc(Cl)ccc12 (stereo partly drawn) [SP 311, (3R,6'S,7′R)-7′-(3-bromophenyl)-6-chloro-6′-(5-methyl-1H-1,2,3-triazole-4-carbonyl)-1′,6′,7′,7a′-tetrahydro-3′H-spiro[indoline-3,5′-pyrrolo[1,2-c]thiazol]-2-one]
Corrosion Rate ([1]; 0.036 mM): 2064 mpy | Ecorr ([1]; 0.036 mM): −326 mV | βa ([1]; 0.036 mM): 0.2462 V/decade | βc ([1]; 0.036 mM): 0.3398 V/decade | Corrosion Rate ([1]; 0.073 mM): 1769 mpy | Ecorr ([1]; 0.073 mM): −340.6 mV | βa ([1]; 0.073 mM): 0.236 V/decade | βc ([1]; 0.073 mM): 0.3194 V/decade | Corrosion Rate ([1]; 0.109 mM): 374.9 mpy | Ecorr ([1]; 0.109 mM): −346.5 mV | βa ([1]; 0.109 mM): 0.1828 V/decade | βc ([1]; 0.109 mM): 0.247 V/decade | θ ([1]; 0.036 mM): −0.015 | θ ([1]; 0.073 mM): 0.130 | θ ([1]; 0.109 mM): 0.816 | Frequency ([2]; 0.036 mM): 198.60 Hz | Phase angle ([2]; 0.036 mM): −43.50 ° | Frequency ([2]; 0.073 mM): 198.60 Hz | Frequency ([2]; 0.109 mM): 315.50 Hz | Phase angle ([2]; 0.109 mM): −53.23 ° | Slope α ([2]; 0.036 mM): −0.4465 | Slope α ([2]; 0.073 mM): −0.5577 | Slope α ([2]; 0.109 mM): −0.5999 | θ ([3]; 0.036 mM): 0.143 | θ ([3]; 0.073 mM): 0.090 | θ ([3]; 0.109 mM): 0.629

Cc1[nH]nnc1C(=O)[C@H]1[C@H](c2cccc([N+](=O)[O-])c2)C2CSCN2[C@]12C(=O)Nc1cc(Cl)ccc12 (stereo partly drawn) [SP 37, (3R,6'S,7′R)-6-chloro-6′-(5-methyl-1H-1,2,3-triazole-4-carbonyl)-7′-(3-nitrophenyl)-1′,6′,7′,7a′-tetrahydro-3′H-spiro[indoline-3,5′-pyrrolo[1,2-c]thiazol]-2-one]
Corrosion Rate ([1]; 0.039 mM): 889.1 mpy | Ecorr ([1]; 0.039 mM): −356.4 mV | βa ([1]; 0.039 mM): 0.2062 V/decade | βc ([1]; 0.039 mM): 0.2714 V/decade | Corrosion Rate ([1]; 0.078 mM): 476.4 mpy | Ecorr ([1]; 0.078 mM): −365.3 mV | βa ([1]; 0.078 mM): 0.204 V/decade | βc ([1]; 0.078 mM): 0.2582 V/decade | Corrosion Rate ([1]; 0.117 mM): 311.8 mpy | Ecorr ([1]; 0.117 mM): −409.6 mV | βa ([1]; 0.117 mM): 0.1768 V/decade | βc ([1]; 0.117 mM): 0.2218 V/decade | θ ([1]; 0.039 mM): 0.490 | θ ([1]; 0.078 mM): 0.727 | θ ([1]; 0.117 mM): 0.821 | Frequency ([2]; 0.039 mM): 198.60 Hz | Phase angle ([2]; 0.039 mM): −51.61 ° | Frequency ([2]; 0.078 mM): 158.40 Hz | Phase angle ([2]; 0.078 mM): −48.21 ° | Frequency ([2]; 0.117 mM): 252.40 Hz | Phase angle ([2]; 0.117 mM): −55.42 ° | Slope α ([2]; 0.039 mM): −0.5819 | Slope α ([2]; 0.078 mM): −0.5309 | Slope α ([2]; 0.117 mM): −0.6332 | θ ([3]; 0.039 mM): 0.212 | θ ([3]; 0.078 mM): 0.469 | θ ([3]; 0.117 mM): 0.565

Cc1[nH]nnc1C(=O)[C@H]1[C@H](c2ccc(Cl)cc2Cl)C2CSCN2[C@]12C(=O)Nc1cc(Cl)ccc12 (stereo partly drawn) [SP 34, (3R,6'S,7′R)-6-chloro-7′-(2,4-dichlorophenyl)-6′-(5-methyl-1H-1,2,3-triazole-4-carbonyl)-1′,6′,7′,7a′-tetrahydro-3′H-spiro[indoline-3,5′-pyrrolo[1,2-c]thiazol]-2-one]
Corrosion Rate ([1]; 0.037 mM): 166.5 mpy | Ecorr ([1]; 0.037 mM): -360.4 mV | βa ([1]; 0.037 mM): 0.1677 V/decade | βc ([1]; 0.037 mM): 0.2163 V/decade | Corrosion Rate ([1]; 0.075 mM): 49.72 mpy | Ecorr ([1]; 0.075 mM): -385.6 mV | βa ([1]; 0.075 mM): 0.1419 V/decade | βc ([1]; 0.075 mM): 0.1845 V/decade | Corrosion Rate ([1]; 0.112 mM): 24.11 mpy | Ecorr ([1]; 0.112 mM): -392.9 mV | βa ([1]; 0.112 mM): 0.1291 V/decade | βc ([1]; 0.112 mM): 0.1924 V/decade | θ ([1]; 0.037 mM): 0.905 | θ ([1]; 0.075 mM): 0.971 | θ ([1]; 0.112 mM): 0.986 | Frequency ([2]; 0.037 mM): 315.50 Hz | Phase angle ([2]; 0.037 mM): −60.64 ° | Frequency ([2]; 0.075 mM): 505.50 Hz | Phase angle ([2]; 0.075 mM): −64.02 ° | Frequency ([2]; 0.112 mM): 315.50 Hz | Phase angle ([2]; 0.112 mM): −56.48 ° | Slope α ([2]; 0.037 mM): −0.6717 | Slope α ([2]; 0.075 mM): −0.7124 | Slope α ([2]; 0.112 mM): −0.6321 | θ ([3]; 0.037 mM): 0.825 | θ ([3]; 0.075 mM): 0.942 | θ ([3]; 0.112 mM): 0.974
